These results are taken from PMC10148843.

Protein sequences, listed by entry. Tags and fused reporters are not part of them. Lines headed by an entry give the natural chain unless they say otherwise; changes in a name come on top.
UniProt Q6R327: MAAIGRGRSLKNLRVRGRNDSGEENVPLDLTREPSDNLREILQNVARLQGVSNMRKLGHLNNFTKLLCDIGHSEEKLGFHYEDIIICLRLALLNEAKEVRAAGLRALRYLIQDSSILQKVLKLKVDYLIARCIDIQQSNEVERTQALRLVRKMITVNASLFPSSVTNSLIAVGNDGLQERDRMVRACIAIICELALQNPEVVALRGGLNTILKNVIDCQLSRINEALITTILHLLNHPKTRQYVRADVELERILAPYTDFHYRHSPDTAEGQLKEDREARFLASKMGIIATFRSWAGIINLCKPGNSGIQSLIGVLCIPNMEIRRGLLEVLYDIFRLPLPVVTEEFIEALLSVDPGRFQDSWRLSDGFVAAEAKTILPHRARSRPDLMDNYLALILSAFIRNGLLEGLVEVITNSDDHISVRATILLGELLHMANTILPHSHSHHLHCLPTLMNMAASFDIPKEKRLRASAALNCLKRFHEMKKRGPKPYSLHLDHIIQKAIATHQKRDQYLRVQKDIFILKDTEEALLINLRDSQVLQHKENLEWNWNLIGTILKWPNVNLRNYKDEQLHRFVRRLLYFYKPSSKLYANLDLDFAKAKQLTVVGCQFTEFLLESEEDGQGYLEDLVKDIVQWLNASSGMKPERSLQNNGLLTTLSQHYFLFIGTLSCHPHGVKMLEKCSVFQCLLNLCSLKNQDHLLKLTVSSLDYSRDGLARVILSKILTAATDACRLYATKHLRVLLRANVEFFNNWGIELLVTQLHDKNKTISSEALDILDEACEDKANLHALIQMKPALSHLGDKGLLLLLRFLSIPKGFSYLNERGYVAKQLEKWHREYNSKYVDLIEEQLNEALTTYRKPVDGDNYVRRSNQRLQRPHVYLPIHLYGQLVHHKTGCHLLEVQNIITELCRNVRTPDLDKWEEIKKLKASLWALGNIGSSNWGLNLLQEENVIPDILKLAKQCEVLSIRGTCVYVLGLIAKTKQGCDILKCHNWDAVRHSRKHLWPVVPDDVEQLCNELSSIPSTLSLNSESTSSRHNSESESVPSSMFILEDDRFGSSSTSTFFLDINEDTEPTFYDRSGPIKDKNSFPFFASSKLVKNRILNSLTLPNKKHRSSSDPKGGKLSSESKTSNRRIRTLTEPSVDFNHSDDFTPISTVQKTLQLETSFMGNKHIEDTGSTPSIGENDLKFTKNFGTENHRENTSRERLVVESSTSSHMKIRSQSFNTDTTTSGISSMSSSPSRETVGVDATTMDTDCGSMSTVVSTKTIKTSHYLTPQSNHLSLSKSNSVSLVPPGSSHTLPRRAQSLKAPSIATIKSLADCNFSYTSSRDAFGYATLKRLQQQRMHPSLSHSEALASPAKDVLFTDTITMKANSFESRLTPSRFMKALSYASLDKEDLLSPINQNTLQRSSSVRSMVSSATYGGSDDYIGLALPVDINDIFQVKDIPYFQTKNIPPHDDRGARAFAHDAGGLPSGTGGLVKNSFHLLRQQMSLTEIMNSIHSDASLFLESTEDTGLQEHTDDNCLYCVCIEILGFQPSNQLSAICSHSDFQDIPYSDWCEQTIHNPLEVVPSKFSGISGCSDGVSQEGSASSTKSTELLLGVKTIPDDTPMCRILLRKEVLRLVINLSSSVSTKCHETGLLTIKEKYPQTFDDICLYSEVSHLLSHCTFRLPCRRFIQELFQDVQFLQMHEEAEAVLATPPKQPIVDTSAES
UniProt P06396: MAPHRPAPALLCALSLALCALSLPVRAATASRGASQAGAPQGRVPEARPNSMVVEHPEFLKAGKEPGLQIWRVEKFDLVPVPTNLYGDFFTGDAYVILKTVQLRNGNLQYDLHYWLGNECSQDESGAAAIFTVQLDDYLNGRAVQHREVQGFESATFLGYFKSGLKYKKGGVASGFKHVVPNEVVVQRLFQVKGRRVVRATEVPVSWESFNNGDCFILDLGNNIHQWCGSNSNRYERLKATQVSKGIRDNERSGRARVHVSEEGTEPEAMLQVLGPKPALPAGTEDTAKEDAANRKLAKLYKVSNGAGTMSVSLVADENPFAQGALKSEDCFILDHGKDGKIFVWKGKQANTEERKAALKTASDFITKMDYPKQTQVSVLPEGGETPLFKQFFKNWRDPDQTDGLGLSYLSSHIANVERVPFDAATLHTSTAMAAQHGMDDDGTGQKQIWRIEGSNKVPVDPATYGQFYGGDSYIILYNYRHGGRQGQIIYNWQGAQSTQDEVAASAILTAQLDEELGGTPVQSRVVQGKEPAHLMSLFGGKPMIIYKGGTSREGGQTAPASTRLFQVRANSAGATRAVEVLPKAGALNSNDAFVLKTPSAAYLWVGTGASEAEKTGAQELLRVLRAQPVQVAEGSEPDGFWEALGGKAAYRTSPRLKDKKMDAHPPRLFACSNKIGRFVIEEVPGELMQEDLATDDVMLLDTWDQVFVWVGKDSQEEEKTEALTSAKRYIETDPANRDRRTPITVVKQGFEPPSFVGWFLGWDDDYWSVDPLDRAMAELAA

Results are given in words; binding and its absence hold for the method and conditions named. In cells and extracts the contact can be indirect. A result given as binding can be weak or reduced; the word gives no strength.

Assay [1] concerns the target RICTOR (human (endogenous in U87MG, DBTRG-05MG, H4, SW1088)) (UniProt Q6R327). Put plainly: co-IP; anti-RICTOR IP from U87MG lysates, western blot; control against siRICTOR; normal, serum activation, AZD8055 and JR-AB2-011 treatment. A general note: A western blot detects proteins with antibodies after separation by electrophoresis.
Assay [2] has the same target. Briefly: co-IP; RICTOR IP from lysates of the high-grade lines U87MG and DBTRG-05MG, western blot.

Regarding gelsolin (GSN) (from UniProt P06396), the binding result in assay [1] and in assay [2] was “binds” in each case.
